No constants are given. Whether binding was seen depends on the method and setting. Binding seen in cells or lysates may run through a third protein. Some entries that bind do so weakly or less than the wild type.
Target: T1, HK2 (human (endogenous in MHCC97H and HCCLM3)) (UniProt P52789)
T1 sequence: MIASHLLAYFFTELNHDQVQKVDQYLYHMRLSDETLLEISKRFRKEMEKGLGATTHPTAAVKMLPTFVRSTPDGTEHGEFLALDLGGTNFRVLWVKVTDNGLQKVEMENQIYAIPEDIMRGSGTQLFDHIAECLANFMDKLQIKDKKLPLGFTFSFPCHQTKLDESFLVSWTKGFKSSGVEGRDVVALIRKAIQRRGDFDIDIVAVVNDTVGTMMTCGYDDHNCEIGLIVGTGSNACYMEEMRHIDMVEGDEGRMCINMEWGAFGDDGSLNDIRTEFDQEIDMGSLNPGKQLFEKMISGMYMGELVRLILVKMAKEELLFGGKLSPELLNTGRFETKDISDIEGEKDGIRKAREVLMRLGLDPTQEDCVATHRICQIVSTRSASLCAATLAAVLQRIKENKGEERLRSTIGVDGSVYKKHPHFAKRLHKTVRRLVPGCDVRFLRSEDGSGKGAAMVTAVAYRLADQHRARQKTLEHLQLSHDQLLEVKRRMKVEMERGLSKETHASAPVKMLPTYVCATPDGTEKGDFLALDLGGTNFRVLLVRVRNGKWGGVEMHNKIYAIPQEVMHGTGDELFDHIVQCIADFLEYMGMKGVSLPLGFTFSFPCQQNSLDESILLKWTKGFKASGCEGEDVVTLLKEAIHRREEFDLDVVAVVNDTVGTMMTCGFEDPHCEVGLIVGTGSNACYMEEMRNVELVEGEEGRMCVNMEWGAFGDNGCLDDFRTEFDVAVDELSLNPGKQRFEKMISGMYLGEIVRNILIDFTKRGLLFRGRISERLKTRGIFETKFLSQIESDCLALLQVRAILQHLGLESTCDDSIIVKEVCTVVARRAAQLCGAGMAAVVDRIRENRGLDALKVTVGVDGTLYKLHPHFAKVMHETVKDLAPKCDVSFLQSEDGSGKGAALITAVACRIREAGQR
Test: co-IP; total cell lysate with 5 µg primary antibody or IgG antibody overnight, agarose A + G 2 h at 4 °C, rinsed three times with PBS, SDS-PAGE and western blot; SQSTM1/P62 with HK2 also tested after USP14 knockdown (sh-USP14), which weakened the interaction

With SQSTM1/P62 (from UniProt Q13501 1-440) as the substance, how does the binding read?
The binding was “binds”.
